Data reported in doi:10.1101/2021.05.18.444567.
Results are given in words; binding and its absence hold for the method and conditions named. In cells and extracts the contact can be indirect. A result given as binding can be weak or reduced; the word gives no strength.

Molecular target: FLAG-METTL5 (human)
Experiment: co-IP

binding: binds
B1: TRMT112 (protein, UniProt Q9UI30 1-125)
chain: MKLLTHNLLSSHVRGVGSRGFPLRLQATEVRICPVEFNPNFVARMIPKVEWSAFLEAADNLRLIQVPKGPVEGYEENEEFLRTMHHLLLEVEVIEGTLQCPESGRMFPISRGIPNMLLSEEETES
